No constants are given. Whether binding was seen depends on the method and setting. For some assays here: A result given as binding can be weak or reduced; the word gives no strength. Blank lines part the entries; values can stand above or below the binder they belong to.
Key:
[1] = biological target: extracellular LRR domain protein of PXL2 (PXL2^LRR) (Arabidopsis thaliana); experiment: ITC; twenty injections of peptide solution titrated into PXL2^LRR in the ITC cell; both purified
[2] = biological target: extracellular LRR domain protein of PXL2 (PXL2^LRR) (Arabidopsis thaliana); experiment: SEC; purified PXL2^LRR incubated with a pool of chemically synthesized peptides with a free C-terminal histidine or asparagine; gel filtration; bound peptide in the peak fraction detected by MALDI-TOF MS; both purified

binding [1]: no binding
B1: CLE13 (peptide)
peptide: RLVPSGPNPLHH
modifications: hydroxyproline (Hyp) at positions 4 and 7

binding [2]: binds
B2: CLE42 (peptide)
peptide: HGVPSGPNPISN
modifications: hydroxyproline (Hyp) at positions 4 and 7

From publication PMC5546936, “CLE42 binding induces PXL2 interaction with SERK2” (Protein & Cell, 2017)
